Results from the supplement of paper PMC10849652.
The other results are listed elsewhere or left out.

Amino acid sequences for entries named in this document (tags omitted). A change or cut given only in a name is not applied to a line headed by its entry.
UniProt Q9H0Y0: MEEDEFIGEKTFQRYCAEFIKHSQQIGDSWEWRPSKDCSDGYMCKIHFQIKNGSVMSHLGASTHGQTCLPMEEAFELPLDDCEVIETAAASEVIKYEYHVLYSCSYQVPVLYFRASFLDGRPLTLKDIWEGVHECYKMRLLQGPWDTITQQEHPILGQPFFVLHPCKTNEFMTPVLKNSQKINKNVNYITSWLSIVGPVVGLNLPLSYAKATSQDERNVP
UniProt Q16864, whole entry, looked up: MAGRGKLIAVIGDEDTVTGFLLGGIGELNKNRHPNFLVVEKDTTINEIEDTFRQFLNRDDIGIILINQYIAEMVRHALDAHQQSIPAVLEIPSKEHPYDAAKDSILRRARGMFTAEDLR
UniProt Q9H1I8: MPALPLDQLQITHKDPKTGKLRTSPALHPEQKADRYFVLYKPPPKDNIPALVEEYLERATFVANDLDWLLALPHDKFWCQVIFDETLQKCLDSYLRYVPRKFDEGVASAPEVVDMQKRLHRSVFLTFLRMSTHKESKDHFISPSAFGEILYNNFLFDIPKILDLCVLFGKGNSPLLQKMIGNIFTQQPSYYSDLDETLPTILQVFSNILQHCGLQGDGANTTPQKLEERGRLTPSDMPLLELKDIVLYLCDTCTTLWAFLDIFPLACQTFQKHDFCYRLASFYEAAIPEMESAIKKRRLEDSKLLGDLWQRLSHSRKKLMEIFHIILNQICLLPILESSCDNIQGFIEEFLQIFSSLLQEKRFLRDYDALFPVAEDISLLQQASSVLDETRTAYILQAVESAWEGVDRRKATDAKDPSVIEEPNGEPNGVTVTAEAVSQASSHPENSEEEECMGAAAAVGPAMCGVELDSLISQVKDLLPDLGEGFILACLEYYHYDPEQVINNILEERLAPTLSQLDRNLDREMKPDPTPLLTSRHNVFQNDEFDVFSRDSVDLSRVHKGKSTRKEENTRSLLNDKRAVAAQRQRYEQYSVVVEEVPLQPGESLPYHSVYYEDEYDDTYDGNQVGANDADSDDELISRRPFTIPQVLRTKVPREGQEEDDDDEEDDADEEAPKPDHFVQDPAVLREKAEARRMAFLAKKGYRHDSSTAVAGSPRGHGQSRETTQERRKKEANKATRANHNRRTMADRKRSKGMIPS
UniProt P98198: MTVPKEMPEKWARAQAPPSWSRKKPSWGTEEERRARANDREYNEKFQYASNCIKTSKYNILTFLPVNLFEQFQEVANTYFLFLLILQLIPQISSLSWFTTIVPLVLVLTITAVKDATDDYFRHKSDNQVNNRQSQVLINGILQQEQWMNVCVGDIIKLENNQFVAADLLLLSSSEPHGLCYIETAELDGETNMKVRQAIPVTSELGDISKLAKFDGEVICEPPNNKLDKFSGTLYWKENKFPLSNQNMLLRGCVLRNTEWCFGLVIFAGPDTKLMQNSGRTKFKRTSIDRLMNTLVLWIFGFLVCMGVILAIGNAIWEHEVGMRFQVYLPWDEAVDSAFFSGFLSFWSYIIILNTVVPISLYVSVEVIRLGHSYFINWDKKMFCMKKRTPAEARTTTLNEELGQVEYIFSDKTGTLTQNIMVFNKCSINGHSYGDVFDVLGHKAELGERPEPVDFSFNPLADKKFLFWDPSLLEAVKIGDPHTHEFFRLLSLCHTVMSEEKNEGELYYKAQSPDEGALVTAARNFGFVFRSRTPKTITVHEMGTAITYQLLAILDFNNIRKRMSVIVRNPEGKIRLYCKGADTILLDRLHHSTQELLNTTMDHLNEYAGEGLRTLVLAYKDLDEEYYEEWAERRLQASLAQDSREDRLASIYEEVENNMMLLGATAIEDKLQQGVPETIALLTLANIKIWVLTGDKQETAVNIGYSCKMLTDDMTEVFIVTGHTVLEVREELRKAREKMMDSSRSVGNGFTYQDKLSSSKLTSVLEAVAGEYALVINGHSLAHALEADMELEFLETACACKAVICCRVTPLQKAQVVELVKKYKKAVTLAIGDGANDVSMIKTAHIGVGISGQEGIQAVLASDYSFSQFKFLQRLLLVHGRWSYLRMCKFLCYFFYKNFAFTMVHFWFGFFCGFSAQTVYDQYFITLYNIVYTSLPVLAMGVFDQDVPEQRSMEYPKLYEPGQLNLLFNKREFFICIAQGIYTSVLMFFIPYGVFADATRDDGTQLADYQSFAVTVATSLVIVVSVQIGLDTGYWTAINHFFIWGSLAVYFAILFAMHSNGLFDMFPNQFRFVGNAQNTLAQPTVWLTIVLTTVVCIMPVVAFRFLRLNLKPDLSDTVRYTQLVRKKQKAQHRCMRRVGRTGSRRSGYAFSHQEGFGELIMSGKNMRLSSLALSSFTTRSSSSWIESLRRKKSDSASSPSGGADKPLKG
UniProt Q6VMQ6: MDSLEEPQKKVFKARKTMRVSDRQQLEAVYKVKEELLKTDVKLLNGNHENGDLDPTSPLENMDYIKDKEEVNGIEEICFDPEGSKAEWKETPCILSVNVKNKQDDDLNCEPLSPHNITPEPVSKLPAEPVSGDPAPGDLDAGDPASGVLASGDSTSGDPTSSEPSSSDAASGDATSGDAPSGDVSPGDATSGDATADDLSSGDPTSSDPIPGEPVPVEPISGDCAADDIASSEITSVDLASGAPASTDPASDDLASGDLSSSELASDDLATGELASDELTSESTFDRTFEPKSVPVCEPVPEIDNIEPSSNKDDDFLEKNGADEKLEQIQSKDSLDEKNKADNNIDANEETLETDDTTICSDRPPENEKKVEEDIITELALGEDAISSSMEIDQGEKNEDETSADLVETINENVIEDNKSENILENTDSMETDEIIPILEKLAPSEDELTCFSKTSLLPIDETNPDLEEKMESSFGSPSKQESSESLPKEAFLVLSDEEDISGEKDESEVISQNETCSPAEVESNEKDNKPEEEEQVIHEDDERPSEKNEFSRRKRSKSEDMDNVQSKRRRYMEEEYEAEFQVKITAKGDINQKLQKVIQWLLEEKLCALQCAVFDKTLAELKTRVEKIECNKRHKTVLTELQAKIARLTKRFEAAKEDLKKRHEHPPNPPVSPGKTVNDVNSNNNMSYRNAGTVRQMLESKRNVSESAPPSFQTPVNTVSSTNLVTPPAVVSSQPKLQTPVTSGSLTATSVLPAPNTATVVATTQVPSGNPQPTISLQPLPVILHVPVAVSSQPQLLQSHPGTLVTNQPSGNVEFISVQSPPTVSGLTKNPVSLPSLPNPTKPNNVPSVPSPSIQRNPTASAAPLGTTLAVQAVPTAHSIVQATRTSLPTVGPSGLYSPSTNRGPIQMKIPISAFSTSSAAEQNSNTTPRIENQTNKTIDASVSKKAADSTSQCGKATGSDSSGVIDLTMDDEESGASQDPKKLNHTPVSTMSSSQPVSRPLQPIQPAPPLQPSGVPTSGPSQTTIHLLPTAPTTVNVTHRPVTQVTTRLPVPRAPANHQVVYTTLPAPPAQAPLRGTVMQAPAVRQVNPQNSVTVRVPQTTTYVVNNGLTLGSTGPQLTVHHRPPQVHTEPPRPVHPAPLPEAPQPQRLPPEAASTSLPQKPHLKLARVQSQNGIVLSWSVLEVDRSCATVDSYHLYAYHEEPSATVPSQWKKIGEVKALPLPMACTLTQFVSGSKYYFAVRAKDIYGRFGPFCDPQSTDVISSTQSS
UniProt Q3SXY8: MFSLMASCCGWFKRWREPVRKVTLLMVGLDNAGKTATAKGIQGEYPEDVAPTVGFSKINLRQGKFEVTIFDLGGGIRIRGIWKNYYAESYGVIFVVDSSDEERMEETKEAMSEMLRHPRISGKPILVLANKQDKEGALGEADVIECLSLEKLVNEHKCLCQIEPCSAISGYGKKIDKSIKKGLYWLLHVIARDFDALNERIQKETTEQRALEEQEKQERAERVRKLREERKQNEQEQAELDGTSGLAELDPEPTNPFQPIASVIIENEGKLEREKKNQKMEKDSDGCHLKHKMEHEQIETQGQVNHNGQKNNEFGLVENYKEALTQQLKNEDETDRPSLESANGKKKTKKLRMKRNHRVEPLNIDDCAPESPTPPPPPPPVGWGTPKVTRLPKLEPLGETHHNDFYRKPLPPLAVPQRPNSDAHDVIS
UniProt Q9H0F7: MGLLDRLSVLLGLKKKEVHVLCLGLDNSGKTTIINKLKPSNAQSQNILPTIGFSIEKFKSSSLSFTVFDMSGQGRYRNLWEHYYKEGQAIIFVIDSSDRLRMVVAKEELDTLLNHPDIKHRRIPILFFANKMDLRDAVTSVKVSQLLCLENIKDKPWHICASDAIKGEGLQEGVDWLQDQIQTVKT
UniProt Q8WYN0: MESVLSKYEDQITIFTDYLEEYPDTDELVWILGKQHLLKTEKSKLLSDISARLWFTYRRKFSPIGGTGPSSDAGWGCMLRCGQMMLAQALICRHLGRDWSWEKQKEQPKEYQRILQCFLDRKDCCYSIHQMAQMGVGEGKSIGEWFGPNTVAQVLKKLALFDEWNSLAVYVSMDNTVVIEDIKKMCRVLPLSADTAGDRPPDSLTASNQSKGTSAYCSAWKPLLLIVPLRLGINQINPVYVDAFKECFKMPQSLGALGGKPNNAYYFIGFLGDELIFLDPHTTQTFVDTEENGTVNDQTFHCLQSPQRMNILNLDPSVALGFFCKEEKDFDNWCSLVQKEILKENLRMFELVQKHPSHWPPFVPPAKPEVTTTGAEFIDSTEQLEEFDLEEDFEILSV
UniProt Q96DT6: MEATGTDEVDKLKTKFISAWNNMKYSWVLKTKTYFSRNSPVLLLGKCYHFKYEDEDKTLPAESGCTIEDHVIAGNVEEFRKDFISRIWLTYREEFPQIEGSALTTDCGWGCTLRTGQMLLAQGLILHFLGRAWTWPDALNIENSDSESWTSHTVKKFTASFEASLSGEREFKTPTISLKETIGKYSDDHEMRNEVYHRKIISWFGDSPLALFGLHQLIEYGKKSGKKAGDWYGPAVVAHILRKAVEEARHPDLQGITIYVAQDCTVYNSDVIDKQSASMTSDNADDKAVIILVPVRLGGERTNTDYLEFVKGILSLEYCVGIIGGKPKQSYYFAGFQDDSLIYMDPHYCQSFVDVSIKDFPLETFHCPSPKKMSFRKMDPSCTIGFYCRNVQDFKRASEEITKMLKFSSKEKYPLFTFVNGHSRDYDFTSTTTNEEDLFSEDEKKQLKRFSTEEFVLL
UniProt P21283, whole entry, looked up: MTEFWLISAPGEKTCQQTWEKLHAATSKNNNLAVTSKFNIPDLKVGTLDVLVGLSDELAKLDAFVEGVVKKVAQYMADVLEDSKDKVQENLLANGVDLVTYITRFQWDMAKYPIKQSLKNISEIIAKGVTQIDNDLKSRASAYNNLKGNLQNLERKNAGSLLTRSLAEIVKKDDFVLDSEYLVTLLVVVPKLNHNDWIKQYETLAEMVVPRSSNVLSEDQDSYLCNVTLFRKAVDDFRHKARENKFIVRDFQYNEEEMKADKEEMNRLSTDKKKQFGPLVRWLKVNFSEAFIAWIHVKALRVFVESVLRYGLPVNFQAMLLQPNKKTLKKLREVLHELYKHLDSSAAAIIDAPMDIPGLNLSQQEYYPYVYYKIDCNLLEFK
UniProt P98194: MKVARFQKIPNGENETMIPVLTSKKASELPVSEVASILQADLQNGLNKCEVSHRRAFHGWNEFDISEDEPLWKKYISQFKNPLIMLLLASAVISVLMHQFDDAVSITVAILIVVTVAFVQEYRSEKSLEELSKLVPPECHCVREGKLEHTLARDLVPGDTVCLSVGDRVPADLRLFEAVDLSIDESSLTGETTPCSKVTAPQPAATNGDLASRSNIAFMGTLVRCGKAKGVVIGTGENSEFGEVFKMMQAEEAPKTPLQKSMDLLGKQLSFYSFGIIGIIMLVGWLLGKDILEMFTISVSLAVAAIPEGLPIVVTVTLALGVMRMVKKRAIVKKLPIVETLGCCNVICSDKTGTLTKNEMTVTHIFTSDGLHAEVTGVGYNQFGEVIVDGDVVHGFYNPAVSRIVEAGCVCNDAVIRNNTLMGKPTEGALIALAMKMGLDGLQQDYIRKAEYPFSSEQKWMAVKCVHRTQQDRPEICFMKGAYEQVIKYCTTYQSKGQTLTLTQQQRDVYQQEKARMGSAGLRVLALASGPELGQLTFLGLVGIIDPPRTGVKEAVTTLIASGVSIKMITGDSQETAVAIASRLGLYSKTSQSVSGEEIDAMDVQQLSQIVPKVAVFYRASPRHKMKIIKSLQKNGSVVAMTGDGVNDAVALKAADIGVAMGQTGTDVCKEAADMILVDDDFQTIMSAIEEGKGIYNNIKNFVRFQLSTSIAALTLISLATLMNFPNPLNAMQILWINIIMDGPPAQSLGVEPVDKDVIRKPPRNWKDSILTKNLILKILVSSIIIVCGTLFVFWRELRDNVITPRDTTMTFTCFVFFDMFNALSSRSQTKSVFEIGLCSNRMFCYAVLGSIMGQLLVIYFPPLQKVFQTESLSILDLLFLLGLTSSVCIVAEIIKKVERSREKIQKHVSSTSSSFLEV

Legend:
Experiment in all cases: log2 fold change, soluble protein after heating vs DMSO (PISA); higher = thermal stabilisation; K562 cells, 10 uM, 30 min; active = over 0.2 and 3.5 SD of the protein, either way, in both replicates (recomputed)
gefitinib = compound: COc1cc2ncnc(Nc3ccc(F)c(Cl)c3)c2cc1OCCCN1CCOCC1 [gefitinib]
Summary of the method: (§1)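 Quantification of soluble protein used TMTpro 16plex LC-MS/MS, with channel sums equalised. Samples were the supernatant after 21,000xg for 90 min of pooled aliquots from K562 cells (2×10^6 cells/mL) treated with 10 μM compound for 30 min, heated for 3 min over 48°C-58°C, and extracted in PBS with 0.5% NP-40 at 4°C. Values, from duplicates, describe thermal stability against control samples on a log2 fold-change scale.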

pictilisib = compound: CS(=O)(=O)N1CCN(Cc2cc3nc(-c4cccc5[nH]ncc45)nc(N4CCOCC4)c3s2)CC1 [pictilisib]
Summary of the method: as §1

[1] = compound: C[C@@H]1COCCN1C2=NC(=NC(=C2)C3(CC3)S(=O)(=O)C)C4=C5C=CNC5=CC=C4
Summary of the method: as §1

gandotinib = compound: Cc1cc(Nc2cc(CN3CCOCC3)c3nc(C)c(Cc4ccc(Cl)cc4F)n3n2)n[nH]1 [gandotinib]
Summary of the method: as §1

tozasertib = compound: Cc1cc(Nc2cc(N3CCN(C)CC3)nc(Sc3ccc(NC(=O)C4CC4)cc3)n2)n[nH]1 [tozasertib]
Summary of the method: as §1

duvelisib = compound: C[C@H](Nc1ncnc2nc[nH]c12)c1cc2cccc(Cl)c2c(=O)n1-c1ccccc1 [duvelisib]
Summary of the method: as §1

[2] = compound: Cc1cc(SCc2sc(-c3ccc(C(F)(F)F)cc3)nc2C)ccc1OCC(=O)O
Summary of the method: as §1

[3] = compound: COC1=CC=C(C=C1)CN2C=CC3=C2C=C(C=C3)C(=O)NO
Summary of the method: as §1

filanesib = compound: CON(C)C(=O)N1N=C(c2cc(F)ccc2F)S[C@@]1(CCCN)c1ccccc1 [filanesib]
Summary of the method: as §1

zotarolimus = compound: CO[C@H]1C[C@@H]2CC[C@@H](C)[C@@](O)(O2)C(=O)C(=O)N2CCCC[C@H]2C(=O)O[C@H]([C@H](C)C[C@@H]2CC[C@H](n3cnnn3)[C@H](OC)C2)CC(=O)[C@H](C)/C=C(\C)[C@@H](O)[C@@H](OC)C(=O)[C@H](C)C[C@H](C)/C=C/C=C/C=C/1C [zotarolimus]
Summary of the method: as §1

idasanutlin = compound: COc1cc(C(=O)O)ccc1NC(=O)[C@@H]1N[C@@H](CC(C)(C)C)[C@](C#N)(c2ccc(Cl)cc2F)[C@H]1c1cccc(Cl)c1F [idasanutlin]
Summary of the method: as §1

alisertib = compound: COc1cc(Nc2ncc3c(n2)-c2ccc(Cl)cc2C(c2c(F)cccc2OC)=NC3)ccc1C(=O)O [alisertib]
Summary of the method: as §1

[4] = compound: COc1cc2nc(-c3cc(F)ccc3O)nc(N[C@@H]3CNC[C@H]3C(C)(C)O)c2cc1OC
Summary of the method: as §1

[5] = compound: COc1cccc2cc(-c3nc([C@H]4CC[C@H](C(=O)O)CC4)n4ncnc(N)c34)[nH]c12
Summary of the method: as §1

lapatinib = compound: CS(=O)(=O)CCNCc1ccc(-c2ccc3ncnc(Nc4ccc(OCc5cccc(F)c5)c(Cl)c4)c3c2)o1 [lapatinib]
Summary of the method: as §1

[6] = compound: CS(=O)(=O)c1ccc(-c2cnc(N)c(C(=O)Nc3ccccc3)n2)cc1
Summary of the method: as §1

crizotinib = compound: C[C@@H](Oc1cc(-c2cnn(C3CCNCC3)c2)cnc1N)c1c(Cl)ccc(F)c1Cl [crizotinib]
Summary of the method: as §1

[7] = compound: C[C@H](C1=CC=C(C=C1)C(=O)NC2=C3C=CNC3=NC=C2)N
Summary of the method: as §1

doramapimod = compound: Cc1ccc(-n2nc(C(C)(C)C)cc2NC(=O)Nc2ccc(OCCN3CCOCC3)c3ccccc23)cc1 [doramapimod]
Summary of the method: as §1

ispinesib = compound: Cc1ccc(C(=O)N(CCCN)[C@@H](c2nc3cc(Cl)ccc3c(=O)n2Cc2ccccc2)C(C)C)cc1 [ispinesib]
Summary of the method: as §1

Measured: log2 fold change

ATG10 (UniProt Q9H0Y0)
inactive: gefitinib -0.1 | pictilisib 0.113 | [1] -0.022 | gandotinib 0.103 | tozasertib -0.085

ATP1A2 (UniProt P50993)
inactive: duvelisib 1.08 | [2] 0.915

ATP1B1 (UniProt P05026)
inactive: [3] -0.058 | filanesib 0.16 | zotarolimus 0.018 | idasanutlin -0.016 | alisertib -0.049 | [4] 0.11 | gefitinib -0.018 | [5] 0.064 | lapatinib -0.062 | pictilisib 0.035 | [6] 0.162 | crizotinib 0.11 | [7] -0.132 | duvelisib 0.109 | gandotinib -0.127 | tozasertib -0.032 | [2] -0.04 | doramapimod -0.069 | ispinesib 0.112

ATP6V1F isoform 2 (UniProt Q16864)
inactive: [3] 0.126 | filanesib 0.162 | zotarolimus 0.036 | idasanutlin 0.095 | alisertib -0.158 | [4] -0.151 | gefitinib 0.019 | [5] 0.021 | lapatinib -0.112 | pictilisib -0.054 | [6] -0.303 | crizotinib 0.034 | [1] -0.025 | [7] -0.031 | gandotinib 0.138 | [2] -0.043 | doramapimod 0.007 | ispinesib 0.076

ASCC2 (UniProt Q9H1I8)
inactive: [3] 0.153 | filanesib 0.263 | zotarolimus -0.169 | alisertib -0.119 | [5] -0.172 | [6] -0.011 | crizotinib -0.158 | [1] -0.024 | [7] 0.253 | duvelisib 0.033 | [2] 0.067 | doramapimod 0.136 | ispinesib -0.142

2 successive entries from above, quoted:
ATP1B1 (UniProt P05026)
inactive: [3] -0.058 | filanesib 0.16 | zotarolimus 0.018 | idasanutlin -0.016 | alisertib -0.049 | [4] 0.11 | gefitinib -0.018 | [5] 0.064 | lapatinib -0.062 | pictilisib 0.035 | [6] 0.162 | crizotinib 0.11 | [7] -0.132 | duvelisib 0.109 | gandotinib -0.127 | tozasertib -0.032 | [2] -0.04 | doramapimod -0.069 | ispinesib 0.112

ATP6V1F isoform 2 (UniProt Q16864)
inactive: [3] 0.126 | filanesib 0.162 | zotarolimus 0.036 | idasanutlin 0.095 | alisertib -0.158 | [4] -0.151 | gefitinib 0.019 | [5] 0.021 | lapatinib -0.112 | pictilisib -0.054 | [6] -0.303 | crizotinib 0.034 | [1] -0.025 | [7] -0.031 | gandotinib 0.138 | [2] -0.043 | doramapimod 0.007 | ispinesib 0.076

(further entries)

ATP8B2 isoform 3 (UniProt P98198)
inactive: idasanutlin 0.218

ATF7IP isoform 4 (UniProt Q6VMQ6)
inactive: [3] 0.05 | zotarolimus 0.011 | idasanutlin 0.08 | alisertib -0.017 | gefitinib -0.004 | [5] 0.188 | pictilisib 0.056 | crizotinib 0.066 | [1] -0.055 | [7] -0.036 | gandotinib -0.021 | tozasertib -0.059 | doramapimod 0

ARL13B (UniProt Q3SXY8)
inactive: [3] -0.038 | filanesib -0.351 | idasanutlin -0.02 | alisertib -0.087 | gefitinib -0.007 | [5] 0.125 | pictilisib 0.111 | [6] -0.022 | crizotinib -0.005 | [1] -0.244 | duvelisib -0.109 | gandotinib 0.08 | tozasertib -0.101 | [2] -0.204 | doramapimod 0.011 | ispinesib -0.07

ARL6 isoform 2 (UniProt Q9H0F7)
inactive: ispinesib 0.028

ATG4A (UniProt Q8WYN0)
inactive: zotarolimus -0.023 | [7] 0.103

ATG4C (UniProt Q96DT6)
inactive: [3] 0.019 | filanesib -0.078 | zotarolimus -0.01 | alisertib -0.096 | [4] 0.051 | gefitinib 0.061 | [5] 0.068 | lapatinib 0.017 | pictilisib -0.266 | [6] 0.059 | crizotinib -0.123 | [1] 0.016 | [7] -0.061 | duvelisib 0.045 | gandotinib -0.05 | tozasertib -0.044 | [2] 0.062 | doramapimod -0.051 | ispinesib -0.02

ATP6V1C1 (UniProt P21283)
inactive: [3] -0.012 | filanesib 0.029 | zotarolimus 0.08 | idasanutlin 0.016 | alisertib -0.069 | [4] -0.091 | gefitinib -0.286 | [5] -0.206 | lapatinib -0.046 | pictilisib -0.022 | [6] -0.05 | crizotinib 0.1 | [1] -0.05 | [7] 0.14 | gandotinib 0.033 | [2] 0.041 | doramapimod 0.015 | ispinesib 0.122

ATP2C1 isoform 3 (UniProt P98194)
inactive: zotarolimus -0.008 | idasanutlin -0.264 | alisertib -0.053 | [4] -0.022 | [5] 0.056 | lapatinib 0.081 | [7] 0.116
